Measurements reported in PubChem BioAssay AID1224826 (NIAID, 2016)

- Assay: 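Knock-downs that raise or lower Tnf reporter signal after endotoxin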 (primary screen)
- Cells: RAW264.7 G9 macrophages from mouse bearing reporters for p65 (GFP) and the Tnf promoter (mCherry)
- Knock-down reagent: siRNA pool against mouse genes, 100 nM
- Duration: 16 h of LPS stimulation, after 2 days of siRNA transfection
- Conditions: bacterial lipopolysaccharide (Salmonella minnesota R595), 10 ng/ml
- Measured: 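Imaged Tnf reporter mCherry in nuclei, minus background, normalised per plate to the median and expressed as robust z-scores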
- Direction: Tnf reporter robust z-score: higher = stronger Tnf promoter reporter signal after LPS; Tnf reporter intensity: higher = stronger Tnf promoter reporter signal
- Active means: 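a well counts as active at a score of -1.3 or below (Tlr4 knock-down control median) or above 3 (raised signal); controls and wells holding fewer than 50 cells are excluded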
- Meaning of the calls: active = Tnf reporter clearly lowered or raised; inactive = no clear change in Tnf reporter
This is one part, drawn at random, of about 17,000 reagents tested. About 1,110 of them (6.6%) were called active. 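Active means lowered or raised reporter signal; replicate intensities are raw and not normalised per plate.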 The numbers tell different reagents against one gene apart. Not all columns of the deposit are shown. No sequences are given here.

target,reagent no.,Tnf reporter robust z-score,fewer than 50 cells in well,"Tnf reporter intensity, replicate 1",Outcome
Gm5087,1,0.8,enough cells in well,213,inactive
Jazf1,1,0.18,enough cells in well,232,inactive
Timm21,1,1.1,enough cells in well,202,inactive
Asb7,1,-1.41,enough cells in well,65.6,active
Abhd17b,1,1.24,enough cells in well,151,inactive
Cand2,1,,fewer than 50 cells per well; well left out of calls,77.8,inactive
Or8c20,1,-0.52,enough cells in well,72,inactive
Fam3b,1,1.66,enough cells in well,251,inactive
Rars2,1,-0.29,enough cells in well,134,inactive
Ssty2,1,,fewer than 50 cells per well; well left out of calls,53.9,inactive
Cox7a2l,1,-0.07,enough cells in well,181,inactive
Fam131a,1,1.11,enough cells in well,236,inactive
Acad9,1,0.82,enough cells in well,353,inactive
Ppif,1,-0.73,enough cells in well,111,inactive
Fhip1b,1,,fewer than 50 cells per well; well left out of calls,166,inactive
Mecom,1,-0.51,enough cells in well,182,inactive
Mecom,2,-0.51,enough cells in well,230,inactive
Or2w1,1,0.44,enough cells in well,321,inactive
Trmu,1,0.08,enough cells in well,134,inactive
Osbpl8,1,1.24,enough cells in well,223,inactive
Cyp2d13,1,1.63,enough cells in well,292,inactive
Eif3a,1,-1.3,enough cells in well,88.8,active
Rps18,1,,fewer than 50 cells per well; well left out of calls,120,inactive
Slc26a7,1,-0.62,enough cells in well,90.3,inactive
4930590J08Rik,1,,fewer than 50 cells per well; well left out of calls,185,inactive
Irs1,1,-0.38,enough cells in well,166,inactive
Mptx1,1,-0.93,enough cells in well,108,inactive
Kif21b,1,0.12,enough cells in well,247,inactive
S1pr2,1,-0.19,enough cells in well,170,inactive
Arpc1a,1,-0.62,enough cells in well,137,inactive
Ubr3,1,0.13,enough cells in well,177,inactive
Efnb3,1,-0.45,enough cells in well,198,inactive
Asic2,1,0.33,enough cells in well,265,inactive
Ugt3a2,1,-0.94,enough cells in well,150,inactive
Rpl11,1,-2.02,enough cells in well,120,active
Timm23,1,2.74,enough cells in well,235,inactive
Zfp599,1,0.51,enough cells in well,142,inactive
Tprg1,1,1.24,enough cells in well,246,inactive
Flvcr1,1,-0.61,enough cells in well,151,inactive
Klk7,1,1.46,enough cells in well,282,inactive
Esx1,1,-0.83,enough cells in well,160,inactive
Tex261,1,4.04,enough cells in well,264,active
Kcnj2,1,0.87,enough cells in well,267,inactive
Gm4884,1,-0.45,enough cells in well,183,inactive
1700102P08Rik,1,-0.34,enough cells in well,190,inactive
Mgat2,1,-0.04,enough cells in well,265,inactive
P2ry10b,1,-1.23,enough cells in well,100,inactive
Slc17a1,1,2.84,enough cells in well,208,inactive
Kbtbd2,1,0.54,enough cells in well,253,inactive
Col17a1,1,-1.27,enough cells in well,157,inactive
5830416A07RIK,1,-1.3,enough cells in well,117,active
Ivd,1,0.05,enough cells in well,216,inactive
Ptpn1,1,-0.43,enough cells in well,174,inactive
Cldn10,1,0.08,enough cells in well,246,inactive
Arl5a,1,-0.64,enough cells in well,108,inactive
Il18r1,1,-0.6,enough cells in well,176,inactive
Crppa,1,,fewer than 50 cells per well; well left out of calls,167,inactive
Cblc,1,-0.68,enough cells in well,198,inactive
